No constants are given. Whether binding was seen depends on the method and setting. In cells and extracts the contact can be indirect. Some results given as binding are weak or reduced against the parent protein; the word gives no strength.

Protein sequences, listed by entry. Tags and fused reporters are not part of them. Residues count along the entry.
UniProt Q9BXM7, residues 78-581: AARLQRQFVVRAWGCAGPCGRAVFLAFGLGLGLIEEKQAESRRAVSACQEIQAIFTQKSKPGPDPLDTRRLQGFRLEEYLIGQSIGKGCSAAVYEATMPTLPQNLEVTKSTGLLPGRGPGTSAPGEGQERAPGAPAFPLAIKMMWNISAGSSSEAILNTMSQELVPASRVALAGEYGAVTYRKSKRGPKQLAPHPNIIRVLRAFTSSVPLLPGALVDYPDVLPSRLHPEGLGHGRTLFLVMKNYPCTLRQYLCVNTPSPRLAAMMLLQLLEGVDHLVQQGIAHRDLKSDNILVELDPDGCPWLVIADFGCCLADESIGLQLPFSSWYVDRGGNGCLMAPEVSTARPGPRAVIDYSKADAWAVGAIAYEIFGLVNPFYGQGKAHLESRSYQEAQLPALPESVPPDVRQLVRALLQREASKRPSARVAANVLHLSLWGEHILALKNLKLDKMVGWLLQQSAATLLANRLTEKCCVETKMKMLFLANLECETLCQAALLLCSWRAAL
UniProt P11142: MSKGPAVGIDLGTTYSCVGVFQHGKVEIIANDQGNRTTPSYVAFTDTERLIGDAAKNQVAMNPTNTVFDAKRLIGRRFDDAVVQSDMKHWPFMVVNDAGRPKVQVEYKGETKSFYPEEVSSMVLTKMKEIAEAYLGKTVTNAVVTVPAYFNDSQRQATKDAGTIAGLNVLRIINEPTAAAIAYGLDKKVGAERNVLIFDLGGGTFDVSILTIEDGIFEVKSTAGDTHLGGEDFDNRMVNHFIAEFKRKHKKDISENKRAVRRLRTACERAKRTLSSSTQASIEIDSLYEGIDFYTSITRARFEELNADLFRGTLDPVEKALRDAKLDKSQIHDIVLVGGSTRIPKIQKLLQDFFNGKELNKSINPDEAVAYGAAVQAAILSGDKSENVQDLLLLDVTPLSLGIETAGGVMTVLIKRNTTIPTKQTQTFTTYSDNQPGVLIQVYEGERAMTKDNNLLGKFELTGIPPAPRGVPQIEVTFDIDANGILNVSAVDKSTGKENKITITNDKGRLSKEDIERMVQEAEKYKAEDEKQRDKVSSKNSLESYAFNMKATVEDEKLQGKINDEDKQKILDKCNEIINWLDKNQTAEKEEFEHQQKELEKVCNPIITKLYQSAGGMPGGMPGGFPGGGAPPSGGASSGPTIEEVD

From article PMC12257754 come the findings set out here.

The test concerns the target PINK1 (UniProt Q9BXM7). Briefly: co-IP; Co-IP Kit (BersinBio, Bes3011): cells lysed, incubated with the target antibody overnight, Protein A/G-MagBeads, washed, eluted, detected by WB; bait antibody and cell line not stated.

In the case of “HSPA8 protein (from UniProt P11142 1-646)”, the binding entry is reported as “binds”.
